# At least one structure is not confirmed: it was looked up by name or label, or the drawing left a doubt.
# Sequences of proteins named here, by UniProt entry; tags and fusion partners are left off. A change or cut given only in a name is not applied to a line headed by its entry.
# UniProt P16960: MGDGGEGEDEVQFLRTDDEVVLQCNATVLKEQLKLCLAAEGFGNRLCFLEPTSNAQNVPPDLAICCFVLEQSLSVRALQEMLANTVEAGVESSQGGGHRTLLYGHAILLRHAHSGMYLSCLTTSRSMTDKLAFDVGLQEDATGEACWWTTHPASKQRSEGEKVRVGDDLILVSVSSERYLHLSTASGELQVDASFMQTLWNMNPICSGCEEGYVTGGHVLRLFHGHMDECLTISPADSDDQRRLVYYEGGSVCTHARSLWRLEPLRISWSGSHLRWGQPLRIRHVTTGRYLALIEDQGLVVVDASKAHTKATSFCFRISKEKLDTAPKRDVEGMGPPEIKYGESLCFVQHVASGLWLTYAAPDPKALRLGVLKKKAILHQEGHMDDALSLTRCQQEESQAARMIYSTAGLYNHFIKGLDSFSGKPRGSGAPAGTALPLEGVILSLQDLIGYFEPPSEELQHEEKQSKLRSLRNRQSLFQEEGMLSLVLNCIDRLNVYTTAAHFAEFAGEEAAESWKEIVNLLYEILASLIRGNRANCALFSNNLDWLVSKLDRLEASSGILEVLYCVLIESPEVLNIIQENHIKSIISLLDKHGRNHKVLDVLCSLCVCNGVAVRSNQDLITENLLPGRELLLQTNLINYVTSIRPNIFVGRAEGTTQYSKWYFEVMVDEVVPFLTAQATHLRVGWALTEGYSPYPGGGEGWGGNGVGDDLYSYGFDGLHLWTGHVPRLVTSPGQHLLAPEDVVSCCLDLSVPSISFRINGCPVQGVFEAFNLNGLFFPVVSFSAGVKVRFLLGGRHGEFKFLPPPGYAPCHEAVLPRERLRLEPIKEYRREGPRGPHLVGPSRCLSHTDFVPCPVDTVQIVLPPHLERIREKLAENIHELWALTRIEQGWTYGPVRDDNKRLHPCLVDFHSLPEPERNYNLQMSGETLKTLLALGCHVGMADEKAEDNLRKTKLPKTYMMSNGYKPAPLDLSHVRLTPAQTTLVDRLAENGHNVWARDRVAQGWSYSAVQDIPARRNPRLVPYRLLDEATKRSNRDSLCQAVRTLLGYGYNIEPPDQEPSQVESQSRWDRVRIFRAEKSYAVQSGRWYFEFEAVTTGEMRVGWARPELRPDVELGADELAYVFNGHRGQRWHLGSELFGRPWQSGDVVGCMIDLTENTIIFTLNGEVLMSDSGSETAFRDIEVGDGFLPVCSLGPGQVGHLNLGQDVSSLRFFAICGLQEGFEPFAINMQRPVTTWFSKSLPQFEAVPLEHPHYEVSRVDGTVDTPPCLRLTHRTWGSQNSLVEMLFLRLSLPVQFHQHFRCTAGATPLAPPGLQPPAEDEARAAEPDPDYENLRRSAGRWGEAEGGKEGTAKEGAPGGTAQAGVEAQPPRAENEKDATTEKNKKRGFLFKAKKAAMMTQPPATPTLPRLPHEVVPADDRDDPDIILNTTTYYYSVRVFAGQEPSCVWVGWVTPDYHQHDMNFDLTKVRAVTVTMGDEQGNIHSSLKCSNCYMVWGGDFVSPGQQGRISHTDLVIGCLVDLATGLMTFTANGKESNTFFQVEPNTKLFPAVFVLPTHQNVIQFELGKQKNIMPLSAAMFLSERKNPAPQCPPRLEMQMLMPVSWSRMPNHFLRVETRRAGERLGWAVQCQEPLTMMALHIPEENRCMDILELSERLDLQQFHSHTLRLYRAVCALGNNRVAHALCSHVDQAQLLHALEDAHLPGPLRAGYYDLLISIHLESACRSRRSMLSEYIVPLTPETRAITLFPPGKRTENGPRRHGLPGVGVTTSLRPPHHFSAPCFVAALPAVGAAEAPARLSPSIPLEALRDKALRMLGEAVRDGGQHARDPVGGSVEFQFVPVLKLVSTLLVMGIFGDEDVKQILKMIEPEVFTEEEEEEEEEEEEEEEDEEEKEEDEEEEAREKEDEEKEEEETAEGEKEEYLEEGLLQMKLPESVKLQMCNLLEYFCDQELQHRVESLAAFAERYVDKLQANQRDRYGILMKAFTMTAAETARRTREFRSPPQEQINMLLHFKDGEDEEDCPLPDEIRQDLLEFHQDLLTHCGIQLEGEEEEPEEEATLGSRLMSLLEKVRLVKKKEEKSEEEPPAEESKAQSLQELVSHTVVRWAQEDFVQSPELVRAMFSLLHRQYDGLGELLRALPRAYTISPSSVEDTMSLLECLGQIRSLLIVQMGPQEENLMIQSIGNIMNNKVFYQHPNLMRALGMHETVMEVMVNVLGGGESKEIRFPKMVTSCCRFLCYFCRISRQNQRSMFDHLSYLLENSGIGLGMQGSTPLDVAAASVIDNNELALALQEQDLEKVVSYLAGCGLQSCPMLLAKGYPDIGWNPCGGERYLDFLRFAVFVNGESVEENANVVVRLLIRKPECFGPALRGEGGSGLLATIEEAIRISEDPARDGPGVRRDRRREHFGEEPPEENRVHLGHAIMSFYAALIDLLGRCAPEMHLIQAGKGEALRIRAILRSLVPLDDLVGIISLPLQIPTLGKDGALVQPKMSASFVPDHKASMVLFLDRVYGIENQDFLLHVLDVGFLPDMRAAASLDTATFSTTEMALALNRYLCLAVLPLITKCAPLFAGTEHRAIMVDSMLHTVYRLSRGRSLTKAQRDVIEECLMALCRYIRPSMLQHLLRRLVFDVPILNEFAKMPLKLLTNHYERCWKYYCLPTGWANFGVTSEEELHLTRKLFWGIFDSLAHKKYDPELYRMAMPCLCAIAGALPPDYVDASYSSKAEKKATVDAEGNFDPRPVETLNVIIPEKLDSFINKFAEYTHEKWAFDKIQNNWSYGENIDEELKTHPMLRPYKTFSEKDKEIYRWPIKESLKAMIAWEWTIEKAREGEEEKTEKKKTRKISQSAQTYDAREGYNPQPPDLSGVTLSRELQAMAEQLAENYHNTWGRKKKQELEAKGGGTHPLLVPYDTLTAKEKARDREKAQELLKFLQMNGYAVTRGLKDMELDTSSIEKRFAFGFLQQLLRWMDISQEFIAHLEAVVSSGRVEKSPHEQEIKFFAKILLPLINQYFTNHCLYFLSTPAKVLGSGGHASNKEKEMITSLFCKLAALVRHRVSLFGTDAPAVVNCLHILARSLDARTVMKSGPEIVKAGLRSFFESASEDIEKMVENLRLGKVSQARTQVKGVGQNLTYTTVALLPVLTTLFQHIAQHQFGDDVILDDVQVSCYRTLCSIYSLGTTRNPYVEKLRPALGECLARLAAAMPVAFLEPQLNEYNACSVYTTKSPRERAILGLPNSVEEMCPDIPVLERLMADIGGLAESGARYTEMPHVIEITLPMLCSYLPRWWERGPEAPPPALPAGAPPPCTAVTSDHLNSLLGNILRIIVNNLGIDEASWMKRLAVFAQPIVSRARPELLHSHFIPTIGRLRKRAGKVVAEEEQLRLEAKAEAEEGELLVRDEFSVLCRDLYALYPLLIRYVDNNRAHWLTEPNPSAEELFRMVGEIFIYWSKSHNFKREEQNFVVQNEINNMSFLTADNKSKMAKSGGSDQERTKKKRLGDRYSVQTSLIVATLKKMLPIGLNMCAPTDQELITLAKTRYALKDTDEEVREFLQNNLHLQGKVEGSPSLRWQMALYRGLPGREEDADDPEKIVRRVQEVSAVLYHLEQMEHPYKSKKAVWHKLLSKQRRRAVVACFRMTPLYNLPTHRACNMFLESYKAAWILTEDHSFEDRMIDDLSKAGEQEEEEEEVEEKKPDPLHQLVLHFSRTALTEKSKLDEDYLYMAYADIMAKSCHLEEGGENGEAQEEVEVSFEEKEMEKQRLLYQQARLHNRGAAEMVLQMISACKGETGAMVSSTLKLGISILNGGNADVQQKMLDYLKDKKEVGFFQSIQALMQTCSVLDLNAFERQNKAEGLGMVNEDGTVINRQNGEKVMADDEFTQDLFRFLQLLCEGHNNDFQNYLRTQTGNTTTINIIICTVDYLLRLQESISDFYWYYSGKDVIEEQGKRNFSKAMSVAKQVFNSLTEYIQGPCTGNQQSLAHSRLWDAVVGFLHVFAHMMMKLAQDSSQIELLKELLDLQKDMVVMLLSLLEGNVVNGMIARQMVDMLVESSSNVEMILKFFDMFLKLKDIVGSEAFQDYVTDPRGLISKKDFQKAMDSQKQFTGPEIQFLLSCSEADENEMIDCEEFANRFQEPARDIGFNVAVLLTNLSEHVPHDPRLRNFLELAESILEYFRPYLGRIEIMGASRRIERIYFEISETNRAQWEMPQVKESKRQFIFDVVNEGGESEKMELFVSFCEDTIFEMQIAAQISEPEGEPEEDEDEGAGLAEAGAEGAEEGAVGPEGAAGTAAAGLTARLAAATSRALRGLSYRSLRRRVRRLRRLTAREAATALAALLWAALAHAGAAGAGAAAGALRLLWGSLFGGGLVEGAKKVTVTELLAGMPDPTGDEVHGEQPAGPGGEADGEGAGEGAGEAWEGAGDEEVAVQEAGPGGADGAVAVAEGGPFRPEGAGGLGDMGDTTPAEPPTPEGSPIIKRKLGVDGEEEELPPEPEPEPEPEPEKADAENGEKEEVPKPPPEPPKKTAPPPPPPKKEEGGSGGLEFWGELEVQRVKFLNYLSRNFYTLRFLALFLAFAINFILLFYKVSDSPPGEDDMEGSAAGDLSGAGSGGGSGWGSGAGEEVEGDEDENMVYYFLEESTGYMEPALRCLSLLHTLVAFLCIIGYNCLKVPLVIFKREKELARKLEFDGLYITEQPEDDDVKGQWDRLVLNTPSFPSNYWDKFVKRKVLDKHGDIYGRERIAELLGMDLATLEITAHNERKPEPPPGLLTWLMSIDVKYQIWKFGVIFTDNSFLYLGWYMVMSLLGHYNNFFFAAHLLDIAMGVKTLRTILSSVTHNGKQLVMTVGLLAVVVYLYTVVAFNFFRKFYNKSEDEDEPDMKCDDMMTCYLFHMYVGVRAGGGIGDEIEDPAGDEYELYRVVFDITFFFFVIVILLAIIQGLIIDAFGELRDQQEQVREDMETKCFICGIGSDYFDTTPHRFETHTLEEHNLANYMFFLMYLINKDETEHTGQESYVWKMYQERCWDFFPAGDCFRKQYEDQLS
# Key:
# RyR2 [1] = molecular target: T1, RyR2 (Mus musculus, UniProt E9Q401); test: Ca2+ sparks in saponin-permeabilized Casq2-/- ventricular myocytes; format: cell-based; conditions: 25 μM, permeabilized Casq2-/- cardiomyocytes, vs DMSO
# T1 construct: spontaneous openings of intracellular RyR2; endogenous in cells; host or cells: ventricular cardiomyocytes isolated from Casq2-/- mice (A1, A6) or wild-type mice (A5)
# Experimental: (FIG. 2A) Representative confocal line scans of Ca2+ sparks in the absence (DMSO) or presence of 25 μM nat-1 or ent-1 in permeabilized Casq2−/− cardiomyocytes. (FIG. 2B) Ca2+ spark frequency in Casq2−/− cells treated with 25 μM nat-1, 7, 8, and their respective enantiomers. (FIG. 2C) Comparison of [3H]ryanodine binding to SR isolated from porcine longissimus dorsi (RyR1) or cardiac ventricle (RyR2) in the presence of 50 μM nat-1, ent-1, or tetracaine (tet). (FIG. 2D) Dose response curves for ent-1 and tet inhibition of [3H]ryanodine binding to RyR2. (FIG. 2E) Representative Ca2+ sparks from permeabilized wild-type cardiomyocytes treated with 3 μM ent-1, 25 μM flecainide, or 50 μM tetracaine. […] SR Ca2+ content was measured as the Ca2+ transient amplitude elicited by application of 10 mM caffeine (n≥5 cells per group). […]
# Ventricular mouse myocytes were isolated, permeabilized with saponin to enable equivalent access of the compounds to the SR membrane, and incubated with DMSO or 25 μM nat- and ent-1, 7, 8. RyR2 activity was measured in the form of Ca^2+ sparks, which are elementary Ca^2+ release events generated by spontaneous openings of intracellular RyR2 Ca^2+ release channels. […] To confirm that [Ca^2+]free was not altered by any of the compounds, Fluo-4 fluorescence was measured under spark assay conditions. […]
# RyR1 = molecular target: T2, RyR1 (Sus scrofa, UniProt P16960); test: [3H]ryanodine binding to skeletal muscle SR; parameters: species or system porcine
# T2 construct: SR isolated from porcine longissimus dorsi (RyR1); from tissue; host or cells: porcine longissimus dorsi sarcoplasmic reticulum
# Experimental: (§1) (FIG. 2A) Representative confocal line scans of Ca2+ sparks in the absence (DMSO) or presence of 25 μM nat-1 or ent-1 in permeabilized Casq2−/− cardiomyocytes. (FIG. 2B) Ca2+ spark frequency in Casq2−/− cells treated with 25 μM nat-1, 7, 8, and their respective enantiomers. (FIG. 2C) Comparison of [3H]ryanodine binding to SR isolated from porcine longissimus dorsi (RyR1) or cardiac ventricle (RyR2) in the presence of 50 μM nat-1, ent-1, or tetracaine (tet). (FIG. 2D) Dose response curves for ent-1 and tet inhibition of [3H]ryanodine binding to RyR2. (FIG. 2E) Representative Ca2+ sparks from permeabilized wild-type cardiomyocytes treated with 3 μM ent-1, 25 μM flecainide, or 50 μM tetracaine. Graph indicates amplitude of Ca2+ release of the selected representative sparks over time. (FIG. 2F) Percent change in spark frequency, amplitude, mass, leak, and SR Ca2+ content relative to vehicle (DMSO), obtained from wild-type myocytes. SR Ca2+ content was measured as the Ca2+ transient amplitude elicited by application of 10 mM caffeine (n≥5 cells per group). Data are presented as mean±SEM. N≥30 cells per group for A, B, and F. N=4 replicates for each concentration tested in C and D. *p<0.05 vs DMSO, **p<0.01 vs DMSO, ***p<0.001 vs DMSO by 1-way ANOVA with Tukey's post-hoc test (B) or t-test (C, D, and F). […]
# RyR2 [2] = molecular target: T3, RyR2 (Sus scrofa, UniProt A0A5G2R1W3); test: [3H]ryanodine binding to cardiac SR; parameters: species or system porcine; conditions: 50 μM, three hours
# T3 construct: cardiac ventricle (RyR2); from tissue; host or cells: porcine cardiac ventricle sarcoplasmic reticulum
# Experimental: as §1
# RyR2 [3] = molecular target: T1, RyR2; test: Ca2+ sparks in permeabilized wild-type myocytes; format: cell-based
# Experimental: (FIG. 2A) Representative confocal line scans of Ca2+ sparks in the absence (DMSO) or presence of 25 μM nat-1 or ent-1 in permeabilized Casq2−/− cardiomyocytes. (FIG. 2B) Ca2+ spark frequency in Casq2−/− cells treated with 25 μM nat-1, 7, 8, and their respective enantiomers. (FIG. 2C) Comparison of [3H]ryanodine binding to SR isolated from porcine longissimus dorsi (RyR1) or cardiac ventricle (RyR2) in the presence of 50 μM nat-1, ent-1, or tetracaine (tet). (FIG. 2D) Dose response curves for ent-1 and tet inhibition of [3H]ryanodine binding to RyR2. (FIG. 2E) Representative Ca2+ sparks from permeabilized wild-type cardiomyocytes treated with 3 μM ent-1, 25 μM flecainide, or 50 μM tetracaine. Graph indicates amplitude of Ca2+ release of the selected representative sparks over time. (FIG. 2F) Percent change in spark frequency, amplitude, mass, leak, and SR Ca2+ content relative to vehicle (DMSO), obtained from wild-type myocytes. SR Ca2+ content was measured as the Ca2+ transient amplitude elicited by application of 10 mM caffeine (n≥5 cells per group). Data are presented as mean±SEM. N≥30 cells per group for A, B, and F. N=4 replicates for each concentration tested in C and D. *p<0.05 vs DMSO, **p<0.01 vs DMSO, ***p<0.001 vs DMSO by 1-way ANOVA with Tukey's post-hoc test (B) or t-test (C, D, and F).
# Skeletal and cardiac SR were incubated with 50 μM nat-1, ent-1, and tetracaine for three hours. Nat-1 increased RyR1 activity, but had no effect on RyR2 (FIG. 2C). Conversely, ent-1 inhibited RyR2, but had no effect on RyR1. The well-established RyR inhibitor, tetracaine, inhibited both isoforms. Ent-1 was selected to generate full dose response curves for both cardiac and skeletal SR. Ent-1 inhibited RyR2 in a concentration-dependent manner with an apparent IC50 of approximately 0.1 μM and maximal inhibition of approximately 20% (FIG. 2D), but had no effect on RyR1 up to 50 μM (Figure S2). […] To further characterize the Ca^2+ release inhibition by ent-1, the present inventors applied a lower concentration (3 μM) to wild type mouse myocytes and compared results to two other classical Ca^2+ release inhibitors, flecainide and tetracaine (representative line scans and sparks are shown in FIG. 2E).
# RyR2 [4] = molecular target: T1, RyR2; test: Spontaneous Ca2+ release in intact Casq2-/- cardiomyocytes, paced with isoproterenol; format: cell-based
# Casq2^−/− mice = test: Catecholamine-induced ventricular arrhythmia, ECG in Casq2-/- mice; format: in vivo, mouse; conditions: 30 mg/kg i.p.
# Experimental: (FIG. 3A) Isolated cardiomyocytes were field stimulated at 3 Hz for 20 seconds followed by 40 seconds recording of SCR events (†). Application of 10 mM caffeine (caff) was used to measure SR Ca2+ content. (FIG. 3B) SCR frequency following cessation of pacing. N=63, 27, 31, 63, 30, and 27 cells for […] ent-1, respectively. **p<0.01, ***p<0.001 vs DMSO by t-test. (FIG. 3C) Representative heart rate traces in Casq2−/− mice treated with DMSO or ent-1. Isoproterenol (3.0 mg/kg i.p.) was injected at 0 s. Rhythm strips show arrhythmia features. Ectopic beats (†) produce a variable HR in the traces. (FIG. 3D) Quantification of catecholamine-induced ectopic beats by surface electrocardiogram in Casq2−/− mice injected intraperitoneally with 30 mg/kg (drug/body weight) nat-1 or ent-1 or DMSO of equivalent volume 30 minutes prior to recordings. ***p<0.001 vs DMSO or ###p<0.001 vs nat-1 by Mann-Whitney U-test. (FIG. 3E) Incidence of ventricular tachycardia (VT). p=0.0305 for ent-1 vs DMSO (*) or ent-1 vs nat-1 (#) by Fisher's exact test. N=22 mice per group (D and E). Data in B and D presented as mean±SEM.
# To determine whether ent-1 inhibition of Ca^2+ release in cardiomyocytes in vitro translates into activity against ventricular arrhythmia in vivo, Casq2^−/− mice were injected intraperitoneally with 30 mg/kg nat-1, ent-1, or DMSO of equivalent volume. After 30 minutes, mice were anesthetized with inhaled isoflurane and electrocardiogram recordings were made during intraperitoneal injection of 3.0 mg/kg isoproterenol to induce CPVT. FIG. 3C (first panel) illustrates the HR response to isoproterenol (0 s) and subsequent development of ventricular arrhythmias. […] To exclude the possibility that the reduction in peak HR was responsible for the arrhythmia reduction by ent-1, we used a linear regression model to assess whether lower peak HR or ΔHR confer protection from ectopic beats. No association was found between peak or ΔHR and the number of ectopic beats in the DMSO and nat-1 groups. […] Drugs that block cell membrane Na^+ or L-type Ca^2+ channels can prevent CPVT in mouse models and humans. To assess whether ent-1 in vivo efficacy was a result of Na^+ channel or Ca^2+ channel block, we measured the ECG QRS duration (prolonged by Na^+ channel blockers) and the PR interval (prolonged by Ca^2+ channel blockers).
# [5] = 3 μM ent-1, 25 μM flecainide, 50 μM tetracaine
smiles,measurement,setting,value
"CCCCC[C@@H]1OC(=O)[C@@H](C)N(C)C(=O)[C@H](CCCCC)OC(=O)[C@@H](C)N(C)C(=O)[C@H](CCCCC)OC(=O)[C@@H](C)N(C)C(=O)[C@H](CCCCC)OC(=O)[C@@H](C)N(C)C1=O (single isomer, unassigned) [ent-1, ent-(+)-verticilide]",Ca2+ spark frequency,RyR2 [1],significantly reduced
same,[3H]ryanodine binding (RyR1 activity),"RyR1; 50 μM, three hours",no effect
same,"effect on RyR1, dose response","RyR1; up to 50 μM, skeletal SR",no effect
same,[3H]ryanodine binding (RyR2 activity),RyR2 [2],inhibited
same,Ca2+ spark amplitude,RyR2 [3]; 3 μM ent-1,significant reduction
same,Ca2+ spark frequency,RyR2 [3]; [5],significant reduction
same,Ca2+ spark mass,RyR2 [3]; [5],significant reduction
same,Ca2+ spark mediated SR Ca2+ leak,RyR2 [3]; [5],drastically reduced
same,SR Ca2+ load,"RyR2 [3]; 3 μM ent-1, 10 mM caffeine",not a result of reduced SR Ca^2+ load
same,frequency of spontaneous Ca2+ release,"RyR2 [4]; 0.03-1.0 μM, 3 hours, 3 Hz pacing, 1.0 μM isoproterenol",significantly reduced
same,Ca2+ decay kinetics,RyR2 [4]; intact Casq2-/- cardiomyocytes,did not alter
same,diastolic Ca2+ levels,RyR2 [4]; intact Casq2-/- cardiomyocytes,reduced
same,time to peak of paced transients,RyR2 [4]; intact Casq2-/- cardiomyocytes,delayed
same,SR Ca2+ content,"RyR2 [4]; intact Casq2-/- cardiomyocytes, 10 mM caffeine",did not alter
same,Ca2+ transient amplitude,"RyR2 [4]; intact Casq2-/- cardiomyocytes, paced transients",decreased
same,peak HR after isoproterenol injection,Casq2^−/− mice,significant reduction
same,ΔHR after isoproterenol injection,Casq2^−/− mice,significant reduction
same,number of ventricular ectopic beats,Casq2^−/− mice; 30 minutes before isoproterenol 3.0 mg/kg i.p.,significantly reduced
same,incidence of ventricular tachycardia,Casq2^−/− mice; isoproterenol 3.0 mg/kg i.p.,reduced
